Test results from patent US20240182460A1, “ALLOSTERIC CHROMENONE INHIBITORS OF PHOSPHOINOSITIDE 3-KINASE (PI3K) FOR THE TREATMENT OF DISEASE” (PETRA PHARMA CORPORATION, priority 2022, published 2024).
Some of these results come from one statement about several compounds together.

Tested on: CYP3A4
Test: CYP3A4 induction in primary human hepatocytes (mRNA level and enzyme activity)
Assay type: in vitro ADME
Conditions: compound at 1 μM, 72 hours of treatment

SMILES | CYP3A4 mRNA fold induction level
Cc1cc([C@@H](C)Oc2ccc(Cl)nc2C(N)=O)c2oc(-c3ccc4c(c3)OCCO4)c(C)c(=O)c2c1 [Example 65A, 6-Chloro-3-[(1R)-1-[2-(2,3-dihydro-1,4-benzodioxin-6-yl)-3,6-dimethyl-4-oxo-chromen-8-yl]ethoxy]pyridine-2-carboxamide] | less than 3.0 ×
COCCn1cc(-c2oc3c([C@@H](C)Oc4ccc(Cl)nc4S(N)(=O)=O)cc(C)cc3c(=O)c2C)cn1 [Example 117C, 6-Chloro-3-[(1R)-1-[2-[1-(2-methoxyethyl)pyrazol-4-yl]-3,6-dimethyl-4-oxo-chromen-8-yl]ethoxy]pyridine-2-sulfonamide] | less than 3.0 ×
Cc1cc([C@@H](C)Oc2ccc(Cl)nc2C(N)=O)c2oc(-c3ccc4c(c3)COC(=O)N4)c(C)c(=O)c2c1 [Example 41C, 6-Chloro-3-[(1R)-1-[3,6-dimethyl-4-oxo-2-(2-oxo-1,4-dihydro-3,1-benzoxazin-6-yl)chromen-8-yl]ethoxy]pyridine-2-carboxamide] | less than 3.0 ×
Cc1cc([C@@H](C)Oc2ccc(Cl)cc2S(N)(=O)=O)c2oc(-c3cnn(C)c3)c(C)c(=O)c2c1 [Example 99C, 5-Chloro-2-[(1R)-1-[3,6-dimethyl-2-(1-methylpyrazol-4-yl)-4-oxo-chromen-8-yl]ethoxy]benzenesulfonamide] | less than 3.0 ×
Cc1cc([C@@H](C)Oc2ccc(Cl)nc2-c2noc(=O)[nH]2)c2oc(-c3ccc4cnn(C)c4n3)c(C)c(=O)c2c1 [Example 2C, 3-[6-Chloro-3-[(1R)-1-[3,6-dimethyl-2-(1-methylpyrazolo[3,4-b]pyridin-6-yl)-4-oxo-chromen-8-yl]ethoxy]-2-pyridyl]-4H-1,2,4-oxadiazol-5-one] | less than 3.0 ×
Cc1cc([C@@H](C)Oc2ccc(Cl)nc2-c2noc(=O)[nH]2)c2oc(-c3cccnc3)c(C)c(=O)c2c1 [Example 3A, 3-[6-Chloro-3-[(1R)-1-[3,6-dimethyl-4-oxo-2-(3-pyridyl)chromen-8-yl]ethoxy]-2-pyridyl]-4H-1,2,4-oxadiazol-5-one] | less than 3.0 ×
Cc1cc([C@@H](C)Oc2ccc(Cl)nc2C(N)=O)c2oc(-c3ccc4c(c3)nc(C)n4C)c(C)c(=O)c2c1 [Example 18B, 6-Chloro-3-[(1R)-1-[2-(1,2-dimethylbenzimidazol-5-yl)-3,6-dimethyl-4-oxo-chromen-8-yl]ethoxy]pyridine-2-carboxamide] | less than 3.0 ×
Cc1cc([C@@H](C)Oc2ccc(Cl)nc2C)c2oc(-c3cnn(CCO)c3)c(C)c(=O)c2c1 [Example 72C, 8-[(1R)-1-[(6-Chloro-2-methyl-3-pyridyl)oxy]ethyl]-2-[1-(2-hydroxyethyl)pyrazol-4-yl]-3,6-dimethyl-chromen-4-one] | less than 3.0 ×
Cc1cc([C@@H](C)Oc2cccnc2C(=O)NOCC2CC2)c2oc(-c3ccc4nn(C)cc4c3)c(C)c(=O)c2c1 [Example 25A, N-(Cyclopropylmethoxy)-3-[(1R)-1-[3,6-dimethyl-2-(2-methylindazol-5-yl)-4-oxo-chromen-8-yl]ethoxy]pyridine-2-carboxamide] | less than 3.0 ×
Cc1cc([C@@H](C)Oc2ccc(F)nc2C(N)=O)c2oc(-c3cnn(C)c3)c(C)c(=O)c2c1 [Example 23B, 3-[(1R)-1-[3,6-Dimethyl-2-(1-methylpyrazol-4-yl)-4-oxo-chromen-8-yl]ethoxy]-6-fluoro-pyridine-2-carboxamide] | less than 3.0 ×
Cc1cc([C@@H](C)Oc2ccc(Cl)nc2S(N)(=O)=O)c2oc(-c3cnoc3)c(C)c(=O)c2c1 [Example 12C, 6-Chloro-3-[(1R)-1-(2-isoxazol-4-yl-3,6-dimethyl-4-oxo-chromen-8-yl)ethoxy]pyridine-2-sulfonamide] | less than 3.0 ×
Cc1cc([C@@H](C)Oc2ccc(Cl)nc2C(N)=O)c2oc(-c3ccc4cc[nH]c(=O)c4c3)c(C)c(=O)c2c1 [Example 120A, 6-Chloro-3-[(1R)-1-[3,6-dimethyl-4-oxo-2-(1-oxo-2H-isoquinolin-7-yl)chromen-8-yl]ethoxy]pyridine-2-carboxamide] | less than 3.0 ×
Cc1cc([C@@H](C)Oc2ccc(Cl)nc2N)c2oc(-c3cnn(C)c3)c(C)c(=O)c2c1 [Example 30B, 8-[(1R)-1-[(2-Amino-6-chloro-3-pyridyl)oxy]ethyl]-3,6-dimethyl-2-(1-methylpyrazol-4-yl)chromen-4-one] | less than 3.0 ×
Cc1cc([C@@H](C)Oc2ccc(Cl)nc2C(N)=O)c2oc(-c3ccc4nn(CCO)cc4c3)c(C)c(=O)c2c1 [Example 129C, 6-Chloro-3-[(1R)-1-[2-[2-(2-hydroxyethyl)indazol-5-yl]-3,6-dimethyl-4-oxo-chromen-8-yl]ethoxy]pyridine-2-carboxamide] | less than 3.0 ×
Cc1cc([C@@H](C)Oc2ccc(Cl)nc2C(N)=O)c2oc(-c3ccc4nsnc4c3)c(C)c(=O)c2c1 [Example 140A, 3-[(1R)-1-[2-(2,1,3-Benzothiadiazol-5-yl)-3,6-dimethyl-4-oxo-chromen-8-yl]ethoxy]-6-chloro-pyridine-2-carboxamide] | less than 3.0 ×
Cc1cc([C@@H](C)Oc2ccc(Cl)nc2-c2noc(=O)[nH]2)c2oc(-c3cnc4cccnc4c3)c(C)c(=O)c2c1 [Example 54A, 3-[6-Chloro-3-[(1R)-1-[3,6-dimethyl-2-(1,5-naphthyridin-3-yl)-4-oxo-chromen-8-yl]ethoxy]-2-pyridyl]-4H-1,2,4-oxadiazol-5-one] | less than 3.0 ×
Cc1cc([C@@H](C)Oc2ccc(Cl)nc2C(N)=O)c2oc(-c3cncnc3)c(C)c(=O)c2c1 [Example 67A, 6-Chloro-3-[(1R)-1-(3,6-dimethyl-4-oxo-2-pyrimidin-5-yl-chromen-8-yl)ethoxy]pyridine-2-carboxamide] | less than 3.0 ×
Cc1cc([C@@H](C)Oc2cccnc2-c2ccccc2F)c2oc(-c3cc[nH]c(=O)c3)c(C)c(=O)c2c1 [Example 29A, 4-[8-[(1R)-1-[[2-(2-Fluorophenyl)-3-pyridyl]oxy]ethyl]-3,6-dimethyl-4-oxo-chromen-2-yl]-1H-pyridin-2-one] | less than 3.0 ×
Cc1cc([C@@H](C)Oc2ccc(Cl)nc2S(N)(=O)=O)c2oc(-c3ccc4nc(C)cn4n3)c(C)c(=O)c2c1 [Example 19C, 6-Chloro-3-[(1R)-1-[3,6-dimethyl-2-(2-methylimidazo[1,2-b]pyridazin-6-yl)-4-oxo-chromen-8-yl]ethoxy]pyridine-2-sulfonamide] | less than 3.0 ×
Cc1cc([C@@H](C)Oc2ccc(Cl)nc2S(N)(=O)=O)c2oc(-c3cnn(C[C@]45C[C@H](CO4)C5)c3)c(C)c(=O)c2c1 [Example 118C, 6-Chloro-3-[(1R)-1-[3,6-dimethyl-2-[1-(2-oxabicyclo[2.1.1]hexan-1-ylmethyl)pyrazol-4-yl]-4-oxo-chromen-8-yl]ethoxy]pyridine-2-sulfonamide] | less than 3.0 ×
Cc1cc([C@@H](C)Oc2ccc(Cl)nc2-c2noc(=O)[nH]2)c2oc(-c3cnn(C)c3)c(C)c(=O)c2c1 [Example 2A, 3-[6-Chloro-3-[(1R)-1-[3,6-dimethyl-2-(1-methylpyrazol-4-yl)-4-oxo-chromen-8-yl]ethoxy]-2-pyridyl]-4H-1,2,4-oxadiazol-5-one] | less than 3.0 ×
